Measurements as given in article PMC9532951, “Identification and characterization of a novel SNAT2 (SLC38A2) inhibitor reveals synergy with glucose transport inhibition in cancer cells” (Frontiers in Pharmacology, 2022).
Values joined by “and” are separate entries in the source; they are usually repeats but may differ in a detail not shown here. Equal values may be shown once. The source gives many values for each of these; only a part stands here.

Test system: SNAT1/2
Experiment: FMP assay: depolarisation by amino acid substrates in amino acid depleted HCC1806 cells
Assay type: cell-based, human
Procedure: The FLIPR Membrane Potential Blue Explorer Kit (Molecular Devices) was used to characterise inhibitors and to optimise a high-throughput compound screen. Cells were seeded at approximately 60,000 cells/well on a 96-well plate and allowed to attach and grow overnight in a cell incubator. […] Cells were then washed once with mHBSS and incubated with 50 µl of the mHBSS-resuspended FMP assay dye and 50 µl of mHBSS (with or without inhibitors) and incubated at room temperature for 30 min. The plate was then placed in an EnSpire Multimode plate reader (PerkinElmer) and four sequential measurements of fluorescence were recorded as a baseline reference. Immediately after the baseline measurements were taken, 25 µl of 5 mM glutamine dissolved in mHBSS was injected into each well and the plate was shaken orbitally for 5 s before a series of consecutive fluorescence measurements were taken. The excitation wavelength was set to 530 nm and the emission was detected at 565 nm. […] After the assay was complete, the liquid content of the plate was carefully removed, and the cell monolayer inspected to ensure it remained intact throughout the course of the assay.

Which results are given for `NC(=O)CC[C@H](N)C(=O)O` [Glutamine, glutamine]?
FMP fluorescence reading (amino acid 1 mM final, t=0 s): 55265 and 57234 and 43363; FMP fluorescence reading (amino acid 1 mM final, t=15 s): 99640 and 105103 and 91523; FMP fluorescence reading (amino acid 1 mM final, t=30 s): 105671 and 110267 and 95206; FMP fluorescence reading (amino acid 1 mM final, t=45 s): 110250 and 114911 and 97441; FMP fluorescence reading (amino acid 1 mM final, t=60 s): 114028 and 117820 and 99608; FMP fluorescence reading (amino acid 1 mM final, t=75 s): 116240 and 119431 and 100452; FMP fluorescence reading (amino acid 1 mM final, t=90 s): 118472 and 121213 and 100570; FMP fluorescence reading (amino acid 1 mM final, t=105 s): 119889 and 121546 and 101339; FMP fluorescence reading (amino acid 1 mM final, t=120 s): 120223 and 122455 and 100682; FMP fluorescence reading (amino acid 1 mM final, t=135 s): 120424 and 122015 and 100479; FMP fluorescence reading (amino acid 1 mM final, t=-15 s): 55644 and 57261 and 43139; FMP fluorescence reading (amino acid 1 mM final, t=-30 s, replicates 1-3): 55434 and 57450 and 43367; FMP fluorescence reading (glutamine 0.01mM, t=0 s): 66215 and 65024 and 66732; FMP fluorescence reading (glutamine 0.01mM, t=15 s): 68981 and 67242 and 69177; FMP fluorescence reading (glutamine 0.01mM, t=30 s): 68740 and 68354 and 69059; FMP fluorescence reading (glutamine 0.01mM, t=45 s): 68835 and 68642 and 69775; FMP fluorescence reading (glutamine 0.01mM, t=120 s): 69704 and 70034 and 70486; FMP fluorescence reading (glutamine 0.01mM, t=135 s): 70142 and 69864 and 70651; FMP fluorescence reading (glutamine 0.01mM, t=-15 s): 66333 and 65865 and 67292; FMP fluorescence reading (glutamine 0.01mM, t=-30 s): 67800 and 66826 and 67392; FMP fluorescence reading (glutamine 0.03mM (c24-c26), t=0 s): 67482 and 69910 and 73977; FMP fluorescence reading (glutamine 0.03mM (c24-c26), t=15 s): 77008 and 79804 and 81995; FMP fluorescence reading (glutamine 0.03mM (c24-c26), t=30 s): 76301 and 79843 and 82364; FMP fluorescence reading (glutamine 0.03mM (c24-c26), t=45 s): 76830 and 80238 and 83473; FMP fluorescence reading (glutamine 0.03mM (c24-c26), t=120 s): 78392 and 82423 and 85112; FMP fluorescence reading (glutamine 0.03mM (c24-c26), t=135 s): 78240 and 82097 and 85813; FMP fluorescence reading (glutamine 0.03mM (c24-c26), t=-15 s): 68231 and 70451 and 74293; FMP fluorescence reading (glutamine 0.03mM (c24-c26), t=-30 s): 69790 and 71409 and 75110; FMP fluorescence reading (glutamine 0.03mM (last group, c32-c34), t=0 s): 64896 and 71130 and 70601; FMP fluorescence reading (glutamine 0.03mM (last group, c32-c34), t=15 s): 63644 and 69883 and 70816; FMP fluorescence reading (glutamine 0.03mM (last group, c32-c34), t=30 s): 63367 and 69517 and 70927; FMP fluorescence reading (glutamine 0.03mM (last group, c32-c34), t=45 s): 63632 and 69691 and 70477; FMP fluorescence reading (glutamine 0.03mM (last group, c32-c34), t=120 s): 64400 and 70855 and 71312; FMP fluorescence reading (glutamine 0.03mM (last group, c32-c34), t=135 s): 64630 and 71114 and 71588; FMP fluorescence reading (glutamine 0.03mM (last group, c32-c34), t=-15 s): 65794 and 71804 and 71241; FMP fluorescence reading (glutamine 0.03mM (last group, c32-c34), t=-30 s): 66933 and 72549 and 72536; FMP fluorescence reading (glutamine 0.1mM, t=0 s): 65099 and 69734 and 72884; FMP fluorescence reading (glutamine 0.1mM, t=15 s): 85390 and 92235 and 93443; FMP fluorescence reading (glutamine 0.1mM, t=30 s): 85934 and 93652 and 95056; FMP fluorescence reading (glutamine 0.1mM, t=45 s): 87649 and 95641 and 96965; FMP fluorescence reading (glutamine 0.1mM, t=120 s): 92360 and 99218 and 101114; FMP fluorescence reading (glutamine 0.1mM, t=135 s): 92822 and 99808 and 101354; FMP fluorescence reading (glutamine 0.1mM, t=-15 s): 65493 and 69983 and 73162; FMP fluorescence reading (glutamine 0.1mM, t=-30 s): 66543 and 70613 and 73701; FMP fluorescence reading (glutamine 0.3mM, t=0 s): 63230 and 68101 and 73092; FMP fluorescence reading (glutamine 0.3mM, t=15 s): 94722 and 99977 and 102997; FMP fluorescence reading (glutamine 0.3mM, t=30 s): 95486 and 103375 and 106040; FMP fluorescence reading (glutamine 0.3mM, t=45 s): 97739 and 105827 and 109624; FMP fluorescence reading (glutamine 0.3mM, t=120 s): 102721 and 112486 and 115660; FMP fluorescence reading (glutamine 0.3mM, t=135 s): 102824 and 112256 and 116184; FMP fluorescence reading (glutamine 0.3mM, t=-15 s): 63460 and 68717 and 73527; FMP fluorescence reading (glutamine 0.3mM, t=-30 s): 64636 and 69388 and 73893; FMP fluorescence reading (glutamine 1mM, t=0 s): 64957 and 68914 and 75196; FMP fluorescence reading (glutamine 1mM, t=15 s): 102506 and 107666 and 117982; FMP fluorescence reading (glutamine 1mM, t=30 s): 106597 and 112096 and 122847; FMP fluorescence reading (glutamine 1mM, t=45 s): 109985 and 116885 and 125847; FMP fluorescence reading (glutamine 1mM, t=135 s): 119060 and 127291 and 135312; FMP fluorescence reading (glutamine 1mM, t=-15 s): 66108 and 69945 and 76018; FMP fluorescence reading (glutamine 1mM, t=-30 s): 67506 and 70513 and 76707; FMP fluorescence reading (glutamine 3mM, t=0 s): 71663 and 68445 and 71255; FMP fluorescence reading (glutamine 3mM, t=15 s): 117875 and 110129 and 113705; FMP fluorescence reading (glutamine 3mM, t=30 s): 124251 and 115455 and 120082; FMP fluorescence reading (glutamine 3mM, t=45 s): 129371 and 120106 and 125123; FMP fluorescence reading (glutamine 3mM, t=120 s): 132146 and 137891; FMP fluorescence reading (glutamine 3mM, t=135 s): 141472 and 132355 and 138466; FMP fluorescence reading (glutamine 3mM, t=-15 s): 72061 and 68571 and 72428; FMP fluorescence reading (glutamine 3mM, t=-30 s): 72855 and 69592 and 73406; FMP fluorescence reading (glutamine 10mM, t=0 s): 70338 and 70210 and 71665; FMP fluorescence reading (glutamine 10mM, t=15 s): 107298 and 115961 and 116003; FMP fluorescence reading (glutamine 10mM, t=30 s): 113210 and 122593 and 123254; FMP fluorescence reading (glutamine 10mM, t=45 s): 119118 and 128022 and 129115; FMP fluorescence reading (glutamine 10mM, t=120 s): 134666 and 142907 and 144218; FMP fluorescence reading (glutamine 10mM, t=135 s): 136398 and 144190 and 144688; FMP fluorescence reading (glutamine 10mM, t=-15 s): 70457 and 71078 and 72093; FMP fluorescence reading (glutamine 10mM, t=-30 s): 72656 and 71410 and 72899
